Source: PubChem BioAssay AID504791 (Drosophila RNAi Screening Center, 2011)
The screen tested about 23,000 reagents; shown is a random part of those with a known target gene and a result. Of all reagents, 199 (0.86%) are marked active. 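Plate-scaled ratios behind the calls are not deposited; printed light signals are raw; many rows marked increased or decreased are still called inactive.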 A plus sign joins genes that one reagent is predicted to hit. Not stated in the record: the direction of the score.

Aim: 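Genes of the fly required for silencing by miRNA, siRNA or endo-siRNA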 (primary screen)
Cell system: Drosophila S2-derived reporter cells
Knock-down reagent: long dsRNA against Drosophila genes, about 150-250 ng dsRNA per well (siRNA assay); about 80-120 ng (miRNA assay)
Timing: about 5 days (siRNA assay); about 4 days (miRNA assay)
Challenge: copper sulfate induction of reporters: 25 µM (siRNA assay); 200 mM stated (miRNA assay), 1-2 days before reading
Measurement: 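Dual luciferase assay: Renilla to firefly signal ratio in each well, scaled to the mean ratio of its plate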
Rule for the call: 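a well was a first-pass pick when its plate-scaled ratio rose above 1.5 (siRNA assay) or 1.6 (miRNA assay), or dropped below 0.6; a gene counted only if two separate dsRNAs agreed on retest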

| gene | amplicon | stable siRNA reporter change | stable assay Renilla, run 1 (luminescence) | stable assay firefly, run 1 (luminescence) | outcome |
| --- | --- | --- | --- | --- | --- |
| CG15254 | DRSC01870 | – | 5211 | 4.04e5 | inactive |
| CG15254 | DRSC21765 | – | 9086 | 4.34e5 | inactive |
| cn | DRSC07594 | – | 7271 | 4.42e5 | inactive |
| nompC | DRSC03581 | – | 8204 | 5.51e5 | inactive |
| ReepA | DRSC04572 | – | 12484 | 7.22e5 | inactive |
| ReepA | DRSC22475 | – | 3011 | 3.30e5 | inactive |
| AstC-R2 | DRSC10051 | – | 7648 | 4.29e5 | inactive |
| PIP82 | DRSC18694 | – | 6716 | 3.82e5 | inactive |
| CG17974 | DRSC04299 | – | 6650 | 4.54e5 | inactive |
| THADA | DRSC19675 | – | 6846 | 4.59e5 | inactive |
| CG5880 | DRSC15906 | – | 7703 | 4.32e5 | inactive |
| Slu7 | DRSC14729 | reporter ratio raised past the hit cutoff | 8190 | 3.18e5 | inactive |
| CG30022 | DRSC22405 | – | 5163 | 4.42e5 | inactive |
| eIF6 | DRSC04674 | – | 80866 | 1.07e6 | inactive |
| RPA1 | DRSC16830 | – | 9922 | 6.21e5 | inactive |
| mRpL54 | DRSC04545 | – | 2.53e5 | 3.95e5 | inactive |
| Khc | DRSC07448 | – | 8555 | 2.99e5 | inactive |
| Mpcp1 | DRSC07337 | – | 5799 | 3.72e5 | inactive |

3 entries from above, sorted by “stable assay Renilla, run 1 (luminescence)”, descending.
| gene | amplicon | stable siRNA reporter change | stable assay Renilla, run 1 (luminescence) | stable assay firefly, run 1 (luminescence) | outcome |
| --- | --- | --- | --- | --- | --- |
| AstC-R2 | DRSC10051 | – | 7648 | 4.29e5 | inactive |
| PIP82 | DRSC18694 | – | 6716 | 3.82e5 | inactive |
| ReepA | DRSC22475 | – | 3011 | 3.30e5 | inactive |

More reagents follow.
| gene | amplicon | stable siRNA reporter change | stable assay Renilla, run 1 (luminescence) | stable assay firefly, run 1 (luminescence) | outcome |
| --- | --- | --- | --- | --- | --- |
| CG10918 | DRSC20472 | – | 5971 | 4.96e5 | inactive |
| CG17944 | DRSC12572 | – | 6736 | 5.16e5 | inactive |
| ana1 | DRSC16079 | – | 11117 | 5.29e5 | inactive |
| ana1 | DRSC21825 | – | 8981 | 5.78e5 | inactive |
| Ir10a | DRSC18891 | – | 5862 | 5.88e5 | inactive |
| Ir10a | DRSC19478 | – | 5960 | 4.60e5 | inactive |
| Ir10a | DRSC19479 | – | 5707 | 4.20e5 | inactive |
| HDAC1 | DRSC08696 | – | 6444 | 3.33e5 | inactive |
| CG17187 | DRSC15181 | – | 5758 | 3.71e5 | inactive |
| Akap200 | DRSC01864 | – | 11881 | 7.57e5 | inactive |
| PGAP3 | DRSC04989 | – | 1.06e5 | 1.26e6 | inactive |
| CG32017 | DRSC17183 | – | 5914 | 3.44e5 | inactive |
| Atg18b | DRSC03108 | – | 11238 | 5.90e5 | inactive |
| CG17724 | DRSC06687 | – | 8655 | 5.97e5 | inactive |
| CG11710 | DRSC20485 | – | 5823 | 3.73e5 | inactive |
| CG42380 + CG42379 + PIG-M + 1 more | DRSC03884 | – | 5358 | 3.70e5 | inactive |
| CG42380 + CG42379 + PIG-M + 1 more | DRSC04580 | – | 10254 | 6.90e5 | inactive |
